Values are relative to the signal before dosing, not to a vehicle control; the signal also falls without drug.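 Fibroblast labels denote human fibroblasts, mainly primary ones from uterus (C12385, HUF), lung (H6013), bone (Hs27A), adrenal (HADF) and skin (WS1), plus mammary HMF and breast cancer-associated Hs343T. Cancer cells are basal-like or mesenchymal-like triple-negative breast cancer lines. A hit is a response shift exceeding 3x replicate standard deviation. The tissue of the other fibroblasts is not given here.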
Tested on: MDAMB231
Test: relative JC-1 red fluorescence (viability) vs pre-drug, coculture with fibroblast (fraction); higher = more viable cancer cells
Conditions: 100 µM
Procedure: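 JC-1 labelled TNBC cells cocultured 1:1 (1,500 cells each) with CellTrace Violet stained primary or stromal fibroblasts in 384-well plates in FluoroBrite medium, treated with one of 42 anticancer drugs at 0.1, 1, 10 or 100 uM. JC-1 red fluorescence (mitochondrial integrity in cancer cells only) was read by plate reader every 8 h for 72 h. Values are normalised to each well's pre-drug value. The stock of one drug was tenfold lower, so its dose labels may be too high.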

CC(C)C[C@H](NC(=O)[C@@H](COC(C)(C)C)NC(=O)[C@H](Cc1ccc(O)cc1)NC(=O)[C@H](CO)NC(=O)[C@H](Cc1c[nH]c2ccccc12)NC(=O)[C@H](Cc1cnc[nH]1)NC(=O)[C@@H]1CCC(=O)N1)C(=O)N[C@@H](CCCNC(=N)N)C(=O)N1CCC[C@H]1C(=O)NNC(N)=O [Goserelin]
relative JC-1 red fluorescence
Conditions | 8 h | 16 h | 24 h | 32 h | 40 h | 48 h | 56 h | 64 h | 72 h
coculture fibroblast: C12385 | 0.7878 | 0.746 | 0.704 | 0.664 | 0.598 | 0.561 | 0.52 | 0.518 | 0.49
coculture fibroblast: H6013 | 0.9012 | 0.8447 | 0.819 | 0.808 | 0.769 | 0.748 | 0.741 | 0.722 | 0.685
coculture fibroblast: H6019 | 0.8 | 0.737 | 0.72 | 0.663 | 0.616 | 0.581 | 0.515 | 0.488 | 0.446
coculture fibroblast: H6076 | 0.899 | 0.826 | 0.838 | 0.837 | 0.822 | 0.798 | 0.786 | 0.781 | 0.779
coculture fibroblast: H6231 | 0.928 | 0.832 | 0.773 | 0.7291 | 0.676 | 0.645 | 0.6 | 0.585 | 0.559
coculture fibroblast: HADF | 0.8994 | 0.854 | 0.827 | 0.782 | 0.734 | 0.69 | 0.671 | 0.648 | 0.596
coculture fibroblast: HCFa | 0.89904 | 0.837 | 0.801 | 0.771 | 0.718 | 0.676 | 0.6476 | 0.6229 | 0.57
coculture fibroblast: HCPF | 0.902 | 0.798 | 0.738 | 0.711 | 0.654 | 0.614 | 0.573 | 0.544 | 0.52
coculture fibroblast: HHSteC | 0.937 | 0.8708 | 0.824 | 0.7797 | 0.728 | 0.705 | 0.662 | 0.639 | 0.586
coculture fibroblast: HMF | 0.9 | 0.826 | 0.773 | 0.747 | 0.697 | 0.66 | 0.619 | 0.598 | 0.574
coculture fibroblast: HPFa | 0.975 | 0.9143 | 0.8561 | 0.793 | 0.742 | 0.694 | 0.633 | 0.6 | 0.531
coculture fibroblast: HUF | 0.87 | 0.801 | 0.822 | 0.713 | 0.657 | 0.637 | 0.58 | 0.561 | 0.533
coculture fibroblast: Hs5 | 0.88 | 0.797 | 0.7462 | 0.697 | 0.657 | 0.604 | 0.566 | 0.541 | 0.511
coculture fibroblast: Hs27A | 0.9174 | 0.874 | 0.823 | 0.793 | 0.737 | 0.67 | 0.666 | 0.646 | 0.5934
coculture fibroblast: Hs343T | 0.939 | 0.84 | 0.785 | 0.762 | 0.7 | 0.657 | 0.594 | 0.578 | 0.545
coculture fibroblast: WS1 | 0.7732 | 0.721 | 0.667 | 0.62072 | 0.575 | 0.5393 | 0.4948 | 0.48 | 0.4457

From the supplement of paper PMC6078165
